This assay deals with thoracic aorta. Briefly: Action to the aorta of guinea pig (relaxation of contracted spiral samples). The note with it: Cavia porcellus. Details: species or system Hartley guinea pigs. From the text: Hartley guinea pigs (body weight of 300-500 g) were rendered unconscious fainted by knocking their head and fixed upwardly. A thoracic aorta was taken out to prepare spiral samples, each having size of about 2×25 mm. The sample was suspended in a Magnus tube under a load of about 1 g and upper end of the sample was connected through a silk thread to a FD pick-up to record a change in isometric tension.
Composition of Krebs-Henseleit solution:
Prior to the experiment, the sample in the Magnus tube was left to stand, as it was, for 60 to 90 minutes and in such period of time, the Krebs-Henseleit solution was exchanged to fresh one at an interval of 20 to 30 minutes.
When the contraction of the sample became constant, the compound to be tested was gradually added in a amount starting at a concentration of 10^-8, to […] to observe the contraction of the sample. Finally, papaverine was added therein, so as to make its final concentration of 2×10^-5 g/ml, to check and record also the relaxing reaction or atony caused by the papaverine.

This note sets out measurements from US5164391A, “Hydantoin derivatives for treating complications of diabetes and circulatory diseases” (priority 1989, dated 1992).

pIC50: −log10 of the molar value. Read-outs that look alike come from different tables or passages of the source.

Regarding `C(=C\c1ccccc1)/CN1CCN(C(c2ccccc2)c2ccccc2)CC1` [Cinnarizine, reference compound], the pIC50 (in general, the negative decadic logarithm of the IC50, by convention in mol/L) by setting is: (read-out: IC50 KCl contraction (50% relaxing)) 3.70; (read-out: IC50 N.E. contraction (50% relaxing)) 4.00.
